Assay results from paper PMC8986809.
Results are given in words; binding and its absence hold for the method and conditions named. Binding seen in cells or lysates may run through a third protein. Some binding calls cover weakened binding; strength is not graded here.

Chains of the proteins cited; added tags and fusions are not shown.
UniProt Q00987: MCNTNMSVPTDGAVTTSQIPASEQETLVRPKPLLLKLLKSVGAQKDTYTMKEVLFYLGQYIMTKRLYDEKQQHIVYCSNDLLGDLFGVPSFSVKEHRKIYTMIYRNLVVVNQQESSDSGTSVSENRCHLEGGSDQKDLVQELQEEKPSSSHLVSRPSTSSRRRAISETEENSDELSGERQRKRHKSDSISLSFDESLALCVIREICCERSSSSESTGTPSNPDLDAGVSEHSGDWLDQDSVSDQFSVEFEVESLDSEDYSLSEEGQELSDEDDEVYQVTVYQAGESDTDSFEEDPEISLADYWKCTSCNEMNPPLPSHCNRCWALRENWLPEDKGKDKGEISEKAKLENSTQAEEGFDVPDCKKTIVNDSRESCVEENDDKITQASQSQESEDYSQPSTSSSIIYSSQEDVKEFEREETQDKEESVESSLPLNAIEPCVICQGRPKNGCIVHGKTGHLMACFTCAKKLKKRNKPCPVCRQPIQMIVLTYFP
UniProt P67809: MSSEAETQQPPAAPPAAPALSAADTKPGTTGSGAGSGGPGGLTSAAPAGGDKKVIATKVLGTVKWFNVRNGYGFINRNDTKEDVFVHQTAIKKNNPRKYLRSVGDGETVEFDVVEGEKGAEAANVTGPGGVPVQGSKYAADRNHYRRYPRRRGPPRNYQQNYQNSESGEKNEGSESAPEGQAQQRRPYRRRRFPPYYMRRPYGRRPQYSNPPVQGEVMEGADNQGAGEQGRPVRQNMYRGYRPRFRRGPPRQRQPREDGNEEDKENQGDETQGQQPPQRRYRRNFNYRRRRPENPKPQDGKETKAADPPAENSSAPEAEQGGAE

Target: MDM2 (mouse double minute 2 homologue), E3 ubiquitin-protein ligase (human (endogenous in NSCLC cell lines)) (UniProt Q00987)
Assay: co-IP; NSCLC cell lysate (50 mM Tris-HCl, 200 mM NaCl, 1 mM EDTA, 1% Triton X-100, protease inhibitor); anti-MDM2 or IgG overnight at 4 °C, Protein-A Dynabeads 3 h at 4 °C; blot for YBX1 and MDM2; also in cells transfected with shNC or sh-HOXC-AS3 (more YBX1) and with NC or OE-HOXC-AS3 (less YBX1)

**Q.** For “Y-box binding protein-1 (from UniProt P67809 1-324)”, which binding is on record?
**A.** binds
